In US20090048247A1, “CONDENSED ISOXALINE DERIVATIVES AS INHIBITORS OF PHOSPHODIESTERASE TYPE - IV” (priority 2005, published 2009):
At least one structure is not confirmed: it was looked up by name or label, or the drawing left a doubt.

System: TNF-α release, human peripheral blood mononuclear cells
Test: Cell Based Assay for TNF-α Release (LPS stimulation of Human PBMNC's)
Settings: LPS 1 μg/ml, TNF-α by ELISA; each bound printed with its own unit (μM, nM)
Protocol: Human whole blood was collected in vacutainer tubes containing heparin or EDTA as an anti coagulant. The blood was diluted (1:1) in sterile phosphate buffered saline and 10 ml. was carefully layered over 5 ml Ficoll Hypaque gradient (density 1.077 g/ml) in a 15 ml conical centrifuge tube. The sample was centrifuged at 3000 rpm for 25 minutes in a swing-out rotor at room temperature. After centrifugation, interface of cells were collected, diluted at least 1:5 with PBS and washed three times by centrifugation at 2500 rpm for 10 minutes at room temperature. The cells were resuspended in serum free RPMI 1640 medium at a concentration of 2 million cells/ml. Alternatively whole blood was used.
LPS stimulation of Human PBMNC's:
PBMN cells (0.1 ml; 2 million/ml) were co-incubated with 20 μl of compound (final DMSO concentration of 0.2%) for 10 min in a flat bottom 96 well microtiter plate. Compounds were dissolved in DMSO initially and diluted in medium for a final concentration of 0.2% DMSO. LPS (1 μg/ml, final concentration) was then added at a volume of 10 μl per well. After 30 min, 20 μl of fetal calf serum (final concentration of 10%) was added to each well. […] The level of TNFα in treated wells was compared with the vehicle treated controls and inhibitory potency of compound was expressed as IC50 values calculated by using Graph pad prism.

CCOC(=O)C1C(c2ccc(OC)c(OC3CCCC3)c2)=NOC12CCCCC2 (centres unmarked) [Compound No. 39, Ethyl 3-[3-(cyclopentyloxy)-4-methoxyphenyl]-1-oxa-2-azaspiro[4.5]dec-2-ene-4-carboxylate]
IC50 in the TNF assay: 10 μM to about 0.27 nM

COc1ccc(C2=NOC3CNCC23)cc1OC1CCCC1 (centres unmarked) [Compound No. 140, 3-[3-(Cyclopentyloxy)-4-methoxyphenyl]-4,5,6,6a-tetrahydro-3aH-pyrrolo[3,4-d]isoxazole]
IC50 in the TNF assay: 10 μM to about 0.27 nM
